In patent US20250179208A1:
Substitutions are numbered along the chain they refer to. No constants are given. Whether binding was seen depends on the method and setting. Some entries that bind do so weakly or less than the wild type.

Protein sequences, listed by entry. Tags and fused reporters are not part of them. Residues count along the entry.
UniProt P27487, residues 29-766: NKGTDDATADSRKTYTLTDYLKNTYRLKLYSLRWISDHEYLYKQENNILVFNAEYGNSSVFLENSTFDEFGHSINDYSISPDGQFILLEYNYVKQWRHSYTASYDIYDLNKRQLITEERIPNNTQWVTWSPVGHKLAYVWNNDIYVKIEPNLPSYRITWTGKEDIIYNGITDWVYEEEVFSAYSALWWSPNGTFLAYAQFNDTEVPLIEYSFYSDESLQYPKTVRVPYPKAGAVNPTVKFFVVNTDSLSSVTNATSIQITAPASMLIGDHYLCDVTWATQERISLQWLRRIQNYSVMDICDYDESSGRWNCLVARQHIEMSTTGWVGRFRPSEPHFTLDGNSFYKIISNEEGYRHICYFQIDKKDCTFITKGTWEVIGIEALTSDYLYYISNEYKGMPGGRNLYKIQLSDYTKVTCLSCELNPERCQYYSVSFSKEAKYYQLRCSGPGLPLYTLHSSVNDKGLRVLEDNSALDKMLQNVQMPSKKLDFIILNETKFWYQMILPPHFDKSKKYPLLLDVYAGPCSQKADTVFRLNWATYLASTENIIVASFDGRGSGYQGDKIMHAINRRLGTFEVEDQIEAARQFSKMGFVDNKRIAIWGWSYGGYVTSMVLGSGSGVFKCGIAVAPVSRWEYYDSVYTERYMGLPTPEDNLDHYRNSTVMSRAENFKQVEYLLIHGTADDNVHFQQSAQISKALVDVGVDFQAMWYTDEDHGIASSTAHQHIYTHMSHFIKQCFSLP

B1: 19G294 (anti-CD26-CD3 humanized bispecific antibody derived from No. 62 mouse antibody) (bispecific antibody)
chain: DIVMTQSPSSLSVTPGERVSISCRSDKSLLHSNGNTYLYWFLQKPGQSPQVLIYRMSNLASGVPDRFSGSGSGTDFTLTISRVEAEDVGVYYCFQQLEYPYTFGQGTKLEIKGGGGSGGGGSGGGGSEVQLVQSGAELVKPGASVKLSCAASGFNIKDTYIYWVRQAPGQGLEWVGRIEPMNGNTKYDPKFQGRFTMTANTSKNTAYLQLSSLRSEDTAVYYCSRGGWLLLYVMDYWGQGTLVTVSSGGGGSDVQLVQSGAEVKKPGASVKVSCKASGYTFTRYTMHWVRQAPGQGLEWIGYINPSRGYTNYADSVKGRFTITTDKSTSTAYMELSSLRSEDTATYYCARYYDDHYCLDYWGQGTTVTVSSGGGGSGGGGSGGGGSDIVLTQSPATLSLSPGERATLSCRASQSVSYMNWYQQKPGKAPKRWIYDTSKVASGVPARFSGSGSGTDYSLTINSLEAEDAATYYCQQWSSNPLTFGGGTKVEIK
B2: 19G292 (anti-CD26-CD3 humanized bispecific antibody derived from No. 62 mouse antibody) (bispecific antibody)
chain: QVQLLQSGAEVVKPGASVKISCKASGFNIKDTYIYWVKQPTGQGLEWIGRIEPMNGNTKYDPKFQGRFTMTANTSINTAYLQLSSLTSEDTAVYYCSRGGWLLLYVMDYWGQGTTVTVSSGGGGSGGGGSGGGGSDIVMTQSASSLPVTPGESVSISCRSDKSLLHSNGNTYLYWFLQRPGQSPQVLIYRMSNLASGVPDRFSGSGSGTEFTLTISRVEAEDVGVYYCFQQLEYPYTFGPGTKLEIKGGGGSDVQLVQSGAEVKKPGASVKVSCKASGYTFTRYTMHWVRQAPGQGLEWIGYINPSRGYTNYADSVKGRFTITTDKSTSTAYMELSSLRSEDTATYYCARYYDDHYCLDYWGQGTTVTVSSGGGGSGGGGSGGGGSDIVLTQSPATLSLSPGERATLSCRASQSVSYMNWYQQKPGKAPKRWIYDTSKVASGVPARFSGSGSGTDYSLTINSLEAEDAATYYCQQWSSNPLTFGGGTKVEIK
B3: 19G293 (anti-CD26-CD3 humanized bispecific antibody derived from No. 62 mouse antibody) (bispecific antibody)
chain: QVQLVQSGAELVKPGASVKLSCKASGFNIKDTYIYWVRQAPGQGLEWIGRIEPMNGNTKYDPKFQGRVTMTANTSINTAYLELSSLRSEDTAVYYCSRGGWLLLYVMDYWGQGTLVTVSSGGGGSGGGGSGGGGSDIVMTQSPLSLSVTPGEPASISCRSDKSLLHSNGNTYLYWFLQKPGQSPQVLIYRMSNLASGVPDRFSGSGSGTDFTLKISRVEAEDVGVYYCFQQLEYPYTFGQGTKLEIKGGGGSDVQLVQSGAEVKKPGASVKVSCKASGYTFTRYTMHWVRQAPGQGLEWIGYINPSRGYTNYADSVKGRFTITTDKSTSTAYMELSSLRSEDTATYYCARYYDDHYCLDYWGQGTTVTVSSGGGGSGGGGSGGGGSDIVLTQSPATLSLSPGERATLSCRASQSVSYMNWYQQKPGKAPKRWIYDTSKVASGVPARFSGSGSGTDYSLTINSLEAEDAATYYCQQWSSNPLTFGGGTKVEIK
B4: 19G296 (anti-CD26-CD3 humanized bispecific antibody derived from No. 212 mouse antibody) (bispecific antibody)
chain: QVQLQESGPGLVKPSETLSLTCTVSGDSITSGYWHWIRQPPGKGLEWIGYINYSGYTYYNPSLKSRFTISRDTSKNQYYLQLNSVTAEDTAVYYCTSERNWGAFAYWGQGTLVTVSSGGGGSGGGGSGGGGSENVLTQSPATLSASPGERATLSCRASSSVISTYLHWYQQKPGQAPKLWIYSTSNLASGVPARFSGSGSGTDYTLTISSVEPEDFAVYYCQQFSGYPYTFGQGTKLEIKGGGGSDVQLVQSGAEVKKPGASVKVSCKASGYTFTRYTMHWVRQAPGQGLEWIGYINPSRGYTNYADSVKGRFTITTDKSTSTAYMELSSLRSEDTATYYCARYYDDHYCLDYWGQGTTVTVSSGGGGSGGGGSGGGGSDIVLTQSPATLSLSPGERATLSCRASQSVSYMNWYQQKPGKAPKRWIYDTSKVASGVPARFSGSGSGTDYSLTINSLEAEDAATYYCQQWSSNPLTFGGGTKVEIK
B5: 19G297 (anti-CD26-CD3 humanized bispecific antibody derived from No. 212 mouse antibody) (bispecific antibody)
chain: B4 chain with Q1E, E16G, T23A, P40A, I48V, T142S, A151V, L153I, S154T, V218T
B6: 17G61 (anti-CD26-CD3 chimeric bispecific antibody derived from No. 62 mouse antibody) (bispecific antibody)
chain: DIVMTQAAPSVSVTPGESVSISCRSDKSLLHSNGNTYLYWFLQRPGQSPQVLIYRMSNLASGVPDRFSGSGSGTGFTLRVSRVEAEDVGVYYCFQQLEYPYTFGGGTKLEIKGGGGSGGGGSGGGGSEVQLQQSGAELVKPGASVKLSCTASGFNIKDTYIYWVKQRPGQGLEWIGRIEPMNGNTKYDPKFQGKATMTANTSSNTAYLHLSSLASEDTAVYFCSRGGWLLLYVMDYWGQGTSVTVSSGGGGSDVQLVQSGAEVKKPGASVKVSCKASGYTFTRYTMHWVRQAPGQGLEWIGYINPSRGYTNYADSVKGRFTITTDKSTSTAYMELSSLRSEDTATYYCARYYDDHYCLDYWGQGTTVTVSSGGGGSGGGGSGGGGSDIVLTQSPATLSLSPGERATLSCRASQSVSYMNWYQQKPGKAPKRWIYDTSKVASGVPARFSGSGSGTDYSLTINSLEAEDAATYYCQQWSSNPLTFGGGTKVEIK
B7: 17G105 (anti-CD26-CD3 chimeric bispecific antibody derived from No. 72 mouse antibody) (bispecific antibody)
chain: DIVLTQSPASLAVSLGQRATISCRASESVEYYGTSLMQWYQQKPGQPPKLLIYTASNVESGVPVRFSGSGSGTDFSLNIHPVEEDDIAMYFCQQSRKVPYTFGGGTKLEIKGGGGSGGGGSGGGGSQVQLQQSGPELMKPGASVKISCKATGYSFSGFWIEWVKQRPGHGLEWIGEILPGSGASNYHENFKGRATITADTSANTAYMQLRSLTSEDSAVYYCARERYYGSKYFDVWGAGTTVTVSSGGGGSDVQLVQSGAEVKKPGASVKVSCKASGYTFTRYTMHWVRQAPGQGLEWIGYINPSRGYTNYADSVKGRFTITTDKSTSTAYMELSSLRSEDTATYYCARYYDDHYCLDYWGQGTTVTVSSGGGGSGGGGSGGGGSDIVLTQSPATLSLSPGERATLSCRASQSVSYMNWYQQKPGKAPKRWIYDTSKVASGVPARFSGSGSGTDYSLTINSLEAEDAATYYCQQWSSNPLTFGGGTKVEIK
B8: 17G131 (anti-CD26-CD3 chimeric bispecific antibody derived from No. 51 mouse antibody) (bispecific antibody)
chain: DIQMTQSPASLSASVGESVTITCRASENIYSYLTWYQQKQGKSPQLLVYNAKTLTEDVPSRFSGSGSGTQFSLKINSLQPEDFGSYYCQHHYGSPRTFGGGTKLEIKGGGGSGGGGSGGGGSQAQLQQSGAELMKPGASVKISCKATGYTFSNFWIEWVVQRPGHGLEWIGEILPGRGTTNYNEKFRGKATFTADTSSDTAYIQLSSLTSEDSAVYYCARERFYGSKYFDVWGAGTTVTVSSGGGGSDVQLVQSGAEVKKPGASVKVSCKASGYTFTRYTMHWVRQAPGQGLEWIGYINPSRGYTNYADSVKGRFTITTDKSTSTAYMELSSLRSEDTATYYCARYYDDHYCLDYWGQGTTVTVSSGGGGSGGGGSGGGGSDIVLTQSPATLSLSPGERATLSCRASQSVSYMNWYQQKPGKAPKRWIYDTSKVASGVPARFSGSGSGTDYSLTINSLEAEDAATYYCQQWSSNPLTFGGGTKVEIK
B9: 21G587 (19G294 anti-CD26 scFv joined to the WBP3311_2.306.4 anti-CD3 scFv) (bispecific antibody)
chain: EVQLVQSGAELVKPGASVKLSCAASGFNIKDTYIYWVRQAPGQGLEWVGRIEPMNGNTKYDPKFQGRFTMTANTSKNTAYLQLSSLRSEDTAVYYCSRGGWLLLYVMDYWGQGTLVTVSSGGGGSGGGGSGGGGSDIVMTQSPSSLSVTPGERVSISCRSDKSLLHSNGNTYLYWFLQKPGQSPQVLIYRMSNLASGVPDRFSGSGSGTDFTLTISRVEAEDVGVYYCFQQLEYPYTFGQGTKLEIKGGGGSQVQLVQSGAEVKKPGSSVKVSCKASGFAFTDYYIHWVRQAPGQGLEWMGWISPGNVNTKYNENFKGRVTITADKSTSTAYMELSSLRSEDTAVYYCARDGYSLYYFDYWGQGTLVTVSSGGGGSGGGGSGGGGSDIVMTQSPDSLAVSLGERATINCKSSQSLLNSRTRKNYLAWYQQKPGQPPKLLIYWASTRQSGVPDRFSGSGSGTDFTLTISSLQAEDVAVYYCTQSHTLRTFGGGTKVEIK
B10: 18G272 (anti-CD26-CD3 humanized bispecific antibody derived from No. 62 mouse antibody) (bispecific antibody)
chain: DIVMTQSASSLPVTPGEPASISCRSDKSLLHSNGNTYLYWFLQKPGQSPQVLIYRMSNLASGVPDRFSGSGSGTDFTLTISRVEAEDVGVYYCFQQLEYPYTFGQGTKLEIKGGGGSGGGGSGGGGSQVQLVQSGAEVVKPGASVKISCKASGFNIKDTYIYWVRQRTGQGLEWIGRIEPMNGNTKYDPKFQGRLTMTANTSKNTAYLQLSSLTSEDTAVYYCSRGGWLLLYVMDYWGQGTTVTVSSGGGGSDVQLVQSGAEVKKPGASVKVSCKASGYTFTRYTMHWVRQAPGQGLEWIGYINPSRGYTNYADSVKGRFTITTDKSTSTAYMELSSLRSEDTATYYCARYYDDHYCLDYWGQGTTVTVSSGGGGSGGGGSGGGGSDIVLTQSPATLSLSPGERATLSCRASQSVSYMNWYQQKPGKAPKRWIYDTSKVASGVPARFSGSGSGTDYSLTINSLEAEDAATYYCQQWSSNPLTFGGGTKVEIK
B11: 19G295 (anti-CD26-CD3 humanized bispecific antibody derived from No. 212 mouse antibody) (bispecific antibody)
chain: QVQLQESGPELVKPSETLSLTCKVSGDSITSGYWHWIRQFPGQKLEYMGYINYSGYTYYNPSLKSRLTISRDTSKNQYFLKLRSVTSDDTALYYCTSERNWGAFAYWGQGTLITVSSGGGGSGGGGSGGGGSENVLTQSPASLSVSPGERVTLNCRASSSVISTYLHWYQQKPGKPPRLWIYSTSNLASGIPARFSGSGSGTEYTLTISSVESEDFAVYYCQQFSGYPYTFGQGTKLEIKGGGGSDVQLVQSGAEVKKPGASVKVSCKASGYTFTRYTMHWVRQAPGQGLEWIGYINPSRGYTNYADSVKGRFTITTDKSTSTAYMELSSLRSEDTATYYCARYYDDHYCLDYWGQGTTVTVSSGGGGSGGGGSGGGGSDIVLTQSPATLSLSPGERATLSCRASQSVSYMNWYQQKPGKAPKRWIYDTSKVASGVPARFSGSGSGTDYSLTINSLEAEDAATYYCQQWSSNPLTFGGGTKVEIK

Each binder was assayed against CD26 protein (recombinant human CD26) (human) (UniProt P27487) (assay: BLI (Octet)).
With B1 the binding was “binds”.

What follows are binders tested against CD26 protein (recombinant human CD26) (human) (UniProt P27487) (assay: BLI (Octet), summary of Table 7).
In the case of B1, the binding is reported as “binds”.
B2 was tested, and the binding was “binds”.
For B3, the binding was “binds”.
In the case of B4, the binding is reported as “binds”.
For B5, the binding was “binds”.

Each binder was assayed against CD26 protein (recombinant human CD26) (human) (UniProt P27487) (assay: BLI (Octet QKe), CD26 on AR2G sensor).
With B6 the binding was “binds”.
B7 was tested, and the binding was “binds”.
In the case of B8, the binding is reported as “binds”.

The binders below were run against CD26 protein (recombinant human CD26) (human) (UniProt P27487) (assay: BLI (Octet), biotinylated CD26 on SA sensor).
For B1, the binding was “binds”.
B2 was tested, and the binding was “binds”.
For B3, the binding was “binds”.
For B4, the binding was “binds”.
B5 was tested, and the binding was “binds”.
For B9, the binding was “binds”.

What follows are binders tested against CD26 protein (recombinant human CD26) (human) (UniProt P27487) (assay: dot blot, antibody spotted on NC membrane, probed with CD26-HRP).
With B10 the binding was “binds”.
For B1, the binding was “binds”.
With B2 the binding was “binds”.
B3 was tested, and the binding was “binds”.
For B4, the binding was “binds”.
B5 was tested, and the binding was “binds”.
In the case of B11, the binding is reported as “binds”.

The binders below were run against CD26 protein (recombinant human CD26) (human) (UniProt P27487) (assay: BLI (Octet), biotinylated CD26 on SA sensor; cell of the kdis column).
B2 was tested, and the binding was “binds”.
With B3 the binding was “binds”.

The binders below were run against CD26 protein (recombinant human CD26) (human) (UniProt P27487) (assay: dot blot: sample spotted on NC membrane, probed with CD26-HRP, chemiluminescence).
With B10 the binding was “binds”.
With B1 the binding was “binds”.

What follows are binders tested against CD26 protein (recombinant human CD26) (human) (UniProt P27487) (assay: BLI (Octet), biotinylated 19G294 on SA sensor, 400 nM CD3 then 400 nM CD3 with 400 nM CD26).
B1 was tested, and the binding was “binds”.

The binders below were run against CD26 protein (recombinant human CD26) (human) (UniProt P27487) (assay: BLI (Octet), biotinylated 19G294 on SA sensor, 400 nM CD26; on H9 CD26 added in 400 nM CD3 solution).
In the case of B1, the binding is reported as “binds”.
